Measured values published in PMC10464048.

Amino acid sequences for entries named in this document (tags omitted).
UniProt P62993: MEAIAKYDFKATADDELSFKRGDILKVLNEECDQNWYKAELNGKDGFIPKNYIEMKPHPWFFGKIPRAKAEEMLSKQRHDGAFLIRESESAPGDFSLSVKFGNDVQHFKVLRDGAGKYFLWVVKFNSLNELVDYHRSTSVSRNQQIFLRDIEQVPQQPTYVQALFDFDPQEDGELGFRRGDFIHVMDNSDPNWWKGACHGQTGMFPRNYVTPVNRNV
UniProt P17931: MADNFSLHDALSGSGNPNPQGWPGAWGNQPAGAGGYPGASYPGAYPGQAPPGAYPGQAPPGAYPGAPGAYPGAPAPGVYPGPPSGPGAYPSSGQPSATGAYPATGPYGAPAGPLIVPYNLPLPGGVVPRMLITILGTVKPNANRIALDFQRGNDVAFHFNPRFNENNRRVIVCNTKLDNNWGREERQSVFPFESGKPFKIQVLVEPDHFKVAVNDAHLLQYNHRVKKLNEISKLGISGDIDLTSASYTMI

T1: RING Finger Protein 173 (UniProt Q86UD3)
T1 sequence: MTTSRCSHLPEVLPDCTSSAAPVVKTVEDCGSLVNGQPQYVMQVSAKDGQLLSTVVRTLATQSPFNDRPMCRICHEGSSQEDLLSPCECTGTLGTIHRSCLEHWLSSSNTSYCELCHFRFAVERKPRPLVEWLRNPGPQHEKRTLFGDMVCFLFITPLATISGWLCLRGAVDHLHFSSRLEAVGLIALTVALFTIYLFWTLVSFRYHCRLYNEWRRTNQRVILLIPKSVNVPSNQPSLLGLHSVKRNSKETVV

B1: SLC25A6 (protein, UniProt P12236 1-298)
chain: MTEQAISFAKDFLAGGIAAAISKTAVAPIERVKLLLQVQHASKQIAADKQYKGIVDCIVRIPKEQGVLSFWRGNLANVIRYFPTQALNFAFKDKYKQIFLGGVDKHTQFWRYFAGNLASGGAAGATSLCFVYPLDFARTRLAADVGKSGTEREFRGLGDCLVKITKSDGIRGLYQGFSVSVQGIIIYRAAYFGVYDTAKGMLPDPKNTHIVVSWMIAQTVTAVAGVVSYPFDTVRRRMMMQSGRKGADIMYTGTVDCWRKIFRDEGGKAFFKGAWSNVLRGMGGAFVLVLYDELKKVI

Biological target: T1, RING Finger Protein 173
Test: affinity purification with mass spectrometry; IP from cell lysate with FLAG antibody against IgG control, protein A agarose beads, silver staining, mass spectrometry of gel bands

Molecule | binding
Growth Factor Receptor Bound Protein 2 (from UniProt P62993 1-217) | binds
LGALS3 (from UniProt P17931 1-250) | binds
B1 | binds

These are yes or no findings as the source states them, for the method shown. In cells and extracts the contact can be indirect. A yes stands for co-enrichment or nearness to the bait. Other partners may have been found.
